No constants are given. Whether binding was seen depends on the method and setting. Some results given as binding are weak or reduced against the parent protein; the word gives no strength.
Assays:
[1] = biological target: extracellular domain of cynomolgous BCMA (cynomolgus); assay: SPR (ProteOn), IgG amine-coupled to a GLH chip, cynoBCMA in the mobile phase; concentrations not printed [continued) B]
[2] = biological target: extracellular domain of cynomolgous BCMA (cynomolgus); assay: ELISA (cynomolgous)
[3] = biological target: extracellular domain of cynomolgous BCMA (cynomolgus); assay: ELISA on plates coated with cynomolgus BCMA (1 ug/ml), % of max

Measured: binding

B1: chimeric antibody J22.9-xi (antibody, V domains shown)
VH: QVQLQQSGGGLVQPGGSLKLSCAASGIDFSRYWMSWVRRAPGKGLEWIGEINPDSSTINYAPSLKDKFIISRDNAKNTLYLQMSKVRSEDTALYYCASLYYDYGDAMDYWGQGTSVTVSS
VL: DIVMTQSQRFMTTSVGDRVSVTCKASQSVDSNVAWYQQKPRQSPKALIFSASLRFSGVPARFTGSGSGTDFTLTISNLQSEDLAEYFCQQYNNYPLTFGAGTKLELKR
notes: Full length IgG made in 293-6E cells
binds: all assays above
